Among the data in article PMC11439715 are binding values, retold here.

Amino acid sequences for entries named in this document (tags omitted). Residues count along the entry.
UniProt P05067, residues 18-770: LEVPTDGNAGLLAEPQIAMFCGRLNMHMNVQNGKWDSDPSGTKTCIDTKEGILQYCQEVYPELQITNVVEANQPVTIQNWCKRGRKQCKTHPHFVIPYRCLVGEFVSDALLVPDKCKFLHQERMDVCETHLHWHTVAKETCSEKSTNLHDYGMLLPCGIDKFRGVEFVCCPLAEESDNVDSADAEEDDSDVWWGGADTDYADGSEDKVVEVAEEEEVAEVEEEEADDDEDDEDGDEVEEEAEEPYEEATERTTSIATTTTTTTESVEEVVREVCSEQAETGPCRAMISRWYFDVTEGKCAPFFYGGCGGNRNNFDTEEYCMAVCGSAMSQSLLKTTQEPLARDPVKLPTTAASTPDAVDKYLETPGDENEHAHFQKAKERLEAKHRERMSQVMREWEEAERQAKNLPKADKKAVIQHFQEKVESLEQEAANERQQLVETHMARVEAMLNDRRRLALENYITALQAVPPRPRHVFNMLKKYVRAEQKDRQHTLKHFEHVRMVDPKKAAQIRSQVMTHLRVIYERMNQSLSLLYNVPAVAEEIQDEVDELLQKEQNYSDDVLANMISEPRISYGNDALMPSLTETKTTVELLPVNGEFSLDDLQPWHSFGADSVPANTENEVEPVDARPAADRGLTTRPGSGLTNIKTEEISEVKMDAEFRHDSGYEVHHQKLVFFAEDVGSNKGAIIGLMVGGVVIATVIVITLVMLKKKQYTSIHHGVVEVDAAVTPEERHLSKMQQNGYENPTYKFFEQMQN
UniProt P04233: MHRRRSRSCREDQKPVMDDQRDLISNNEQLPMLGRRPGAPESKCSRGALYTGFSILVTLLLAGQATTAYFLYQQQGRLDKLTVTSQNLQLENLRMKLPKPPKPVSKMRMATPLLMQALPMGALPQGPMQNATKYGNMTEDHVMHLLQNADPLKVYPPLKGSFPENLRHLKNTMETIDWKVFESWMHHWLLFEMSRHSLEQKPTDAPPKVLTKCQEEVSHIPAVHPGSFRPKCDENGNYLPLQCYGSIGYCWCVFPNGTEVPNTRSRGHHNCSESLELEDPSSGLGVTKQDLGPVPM

Results are given in words; binding and its absence hold for the method and conditions named. Binding seen in cells or lysates may run through a third protein. Some entries that bind do so weakly or less than the wild type.

For the experiment, the target named is Amyloid beta precursor protein (UniProt P05067). As to the kind of experiment: co-IP; Pierce Co-IP kit; 1,000 ug protein diluted to 500 ul with 5 ug APP antibody, overnight at 4°C; 25 µL Protein A/G beads; elution and protein blotting; source of the protein sample not stated.

Take CD74 (from UniProt P04233 1-296): the binding entry is “binds”.
